This is one part of the list. Shown are side measurements of this screen, not its main read-out; they come without a call. Compounds called inactive in the main read-out are mostly missing here. Potencies come from curve fits of mixed quality, noted in brackets.
Test: qHTS Assay to Find Inhibitors of Chronic Active B-Cell Receptor Signaling
Conditions: ABC-DLBCL IkBa-CBG/CBR reporter, luminescence ratio (green luciferase fused to IkBa over red control in TMD8 lymphoma cells), 4 h
Outline: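 TMD8 ABC-DLBCL cells carrying doxycycline-inducible green luciferase fused to IkappaBalpha plus unfused red luciferase were exposed to compounds (up to 46 uM) for 4 hrs at 37C. Activity came from the overlap-corrected green/red luminescence ratio.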

[1] = measured here: CBR red luminescence, cell number
[2] = measured here: IkBa-CBG green luminescence

| SMILES | AC50 [1] | AC50 [2] |
| --- | --- | --- |
| Cc1nc2ccc(NC(=O)N3CCCCC3)cc2nc1C | 8.2 µM [falling, partial curve] | – |
| Cc1[nH]nc(SCC(=O)N2CCC(C)CC2)c1[N+](=O)[O-] | 11.6 µM [falling, single point] | – |
| N#C/C(=N/Nc1ccc(OC(F)(F)F)cc1)C(N)=S | 6.31 µM [falling, partial curve] | – |
| Cc1ccc2nsnc2c1S(=O)(=O)NCCc1c(C)[nH]c2ccc(F)cc12 | 2.91 µM [rising, single point] | – |
| Cc1ccc(S(=O)(=O)NCCNC(=O)c2ccccc2)cc1 | 10 µM [rising, partial curve] | – |
| O=C(C1CCC(=O)N(C2CCCC2)C1)N1CCN(c2ccc(Cl)cc2)CC1 (centres undefined) | 14.1 µM [falling, single point] | – |
| CC(=O)Cc1nsc(NC(=O)c2cc(-c3cccc(C(F)(F)F)c3)oc2C)n1 | 2.91 µM [rising, full curve] | – |
| COc1cc(/C=N/n2c(COc3ccccc3)n[nH]c2=S)cc(OC)c1OC(C)=O | 35.5 µM [rising, single point] | – |
| COc1ccc2nc(SCC(=O)NCc3ccc(S(N)(=O)=O)cc3)[nH]c2c1 | 10 µM [rising, partial curve, poor fit] | – |
| CCOC(=O)c1cccc(NC(=O)/C=C/c2ccc3c(c2)OCO3)c1 | 16.4 µM [falling, partial curve] | – |
| O=C(C1CCCO1)N1CCN(Cc2c(O)ccc3ccccc23)CC1 (centres undefined) | 11.6 µM [falling, partial curve, poor fit] | – |
| Cc1noc(C)c1C(=O)Nc1nc2ccc(S(C)(=O)=O)cc2s1 | 5.62 µM [falling, partial curve] | – |
| C[n+]1c2n(c3ccccc31)N=C(c1cc(C(C)(C)C)c(O)c(C(C)(C)C)c1)CS2 | 11.2 µM [falling, partial curve] | – |
| N#Cc1c[nH]n2c(=O)c3c(nc12)CCC3 | 35.5 µM [rising, single point] | – |
| CCOCCOC(=O)NCCCCCCNC(=O)OCCOCC | 31.6 µM [rising, single point] | – |
| N/C(=N\c1nc2ccccc2o1)NC(=O)c1cccc(Cl)c1 | 10 µM [rising, partial curve, poor fit] | – |
| O=C(O)CCCCCNC(=O)c1cccc(Br)c1 | 3.16 µM [falling, full curve] | – |
| CCN(C[C@H]1N[C@@](CC)(C(=O)OC)[C@H]2C(=O)N(Cc3ccccc3)C(=O)[C@@H]12)C(C)=O | 29.1 µM [rising, single point] | – |
| Cc1cccc(NC(=S)N2CCCCCC2)c1C | 0.891 µM [falling, full curve] | – |
| Cn1cccc1/C=C1/SC(=O)N(CC(=O)N2CCCC2)C1=O | 35.5 µM [rising, single point] | – |
| Cc1cc(C(=O)Nc2ccc(Br)cc2)cs1 | 17.8 µM [falling, single point] | – |
| O=C(CN1CCOCC1)NCCNS(=O)(=O)c1ccccc1 | 0.708 µM [rising, full curve, poor fit] | – |

| SMILES | AC50 [1] | AC50 [2] |
| --- | --- | --- |
| Cc1ccc(C(OCC(O)CNC(C)c2ccccc2)c2ccccc2)cc1 (centres undefined) | 35.5 µM [falling, single point] | – |
| Cc1nc(NS(=O)(=O)c2cccs2)c2c3c(sc2n1)CCC3 | 22.4 µM [falling, partial curve, poor fit] | – |
| CCCCNC(=S)N1CCn2cccc2C1c1ccccc1 (centres undefined) | 35.5 µM [falling, single point] | – |
| CC(=O)c1sc(NC(=O)c2oc3ccc(F)cc3c2C)nc1C | 9.2 µM [falling, single point] | – |
| CC1(C)O[C@@H]1COc1c2ccoc2cc2oc(=O)ccc12 | 13 µM [rising, single point] | – |
| Nc1nc(Nc2ccc(Cl)cc2)nc(NCCO)c1[N+](=O)[O-] | 31.6 µM [rising, single point] | – |
| Cc1[nH]c2ccccc2c1C(=O)C(=O)NC1CC1 | 22.4 µM [falling, single point] | – |
| CC(=O)Nc1ccc(S(=O)(=O)Nc2c(NC3CCCCC3)c3ccccc3oc2=O)cc1 | 7.94 µM [falling, partial curve, poor fit] | – |
| O=C1COc2ccc(C(=O)NCc3ccco3)cc2N1 | 6.51 µM [falling, single point] | – |
| COc1ccc(C(NC(=O)c2cc(OC)ccc2OC)c2ccccc2)cc1 (centres undefined) | 35.5 µM [falling, single point] | – |
| COc1cc(OC)c(C2Nc3cccc4cccc(c34)N2)c(OC)c1 | – | 3.98 µM [falling, partial curve, poor fit] |
| O=C(NCc1ccccc1)NC(=O)c1ccccc1 | 0.708 µM [rising, full curve, poor fit] | – |
| Cc1ccc(O)c(-c2cc(C(=O)NCc3ccccc3)[nH]n2)c1 | 1.46 µM [rising, partial curve, poor fit] | – |
| C/C(=N\NC(N)=S)c1cc(-c2ccccc2)c(-c2ccccc2)s1 | 8.91 µM [rising, partial curve] | 12.6 µM [falling, partial curve] |
| CC(=O)N1CCN(c2ccc(NCc3ccc(F)cc3)cc2)CC1 | 14.1 µM [rising, partial curve, poor fit] | – |
| COc1ccc(/C=C/C(=O)c2ccc(OC)cc2O)cc1 | 16.4 µM [falling, partial curve, poor fit] | – |
| COc1ccc(/C=N/Nc2ncnc3sc(C)c(C)c23)cc1 | – | 29.1 µM [falling, single point] |
| CN(C)C(=O)CSc1n[nH]c(=O)[nH]c1=O | 35.5 µM [falling, single point] | – |
| Nc1nnc(-c2ccc(Cl)cc2)o1 | 8.91 µM [rising, partial curve, poor fit] | – |
| COc1ccccc1C(=O)Nc1cccc(C(=O)c2ccccc2)c1 | 35.5 µM [falling, single point] | – |
| COC(=O)CN1C(=S)N(c2ccc(Cl)cc2)C(=O)C1CC(=O)Nc1ccc(Cl)cc1 (centres undefined) | 35.5 µM [falling, partial curve, poor fit] | – |

Three structures already listed, ordered by heavy-atom count, ascending:

| SMILES | AC50 [1] | AC50 [2] |
| --- | --- | --- |
| Cc1nc2ccc(NC(=O)N3CCCCC3)cc2nc1C | 8.2 µM [falling, partial curve] | – |
| O=C(CN1CCOCC1)NCCNS(=O)(=O)c1ccccc1 | 0.708 µM [rising, full curve, poor fit] | – |
| CC(=O)N1CCN(c2ccc(NCc3ccc(F)cc3)cc2)CC1 | 14.1 µM [rising, partial curve, poor fit] | – |

From PubChem BioAssay AID493014 (National Center for Advancing Translational Sciences (NCATS), 2011)
